The supplement of paper PMC7666118
Some of the results follow.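 How the source made its calls: active = dose-dependent thermal stabilisation significant by F-test of dose-response against flat model at 10% FDR; inactive = not significant.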

By UniProt entry, the sequences of proteins in these tests, tags left out. Where a name states a change or a piece, a line headed by the entry shows the natural chain unless it says otherwise.
UniProt Q14C86: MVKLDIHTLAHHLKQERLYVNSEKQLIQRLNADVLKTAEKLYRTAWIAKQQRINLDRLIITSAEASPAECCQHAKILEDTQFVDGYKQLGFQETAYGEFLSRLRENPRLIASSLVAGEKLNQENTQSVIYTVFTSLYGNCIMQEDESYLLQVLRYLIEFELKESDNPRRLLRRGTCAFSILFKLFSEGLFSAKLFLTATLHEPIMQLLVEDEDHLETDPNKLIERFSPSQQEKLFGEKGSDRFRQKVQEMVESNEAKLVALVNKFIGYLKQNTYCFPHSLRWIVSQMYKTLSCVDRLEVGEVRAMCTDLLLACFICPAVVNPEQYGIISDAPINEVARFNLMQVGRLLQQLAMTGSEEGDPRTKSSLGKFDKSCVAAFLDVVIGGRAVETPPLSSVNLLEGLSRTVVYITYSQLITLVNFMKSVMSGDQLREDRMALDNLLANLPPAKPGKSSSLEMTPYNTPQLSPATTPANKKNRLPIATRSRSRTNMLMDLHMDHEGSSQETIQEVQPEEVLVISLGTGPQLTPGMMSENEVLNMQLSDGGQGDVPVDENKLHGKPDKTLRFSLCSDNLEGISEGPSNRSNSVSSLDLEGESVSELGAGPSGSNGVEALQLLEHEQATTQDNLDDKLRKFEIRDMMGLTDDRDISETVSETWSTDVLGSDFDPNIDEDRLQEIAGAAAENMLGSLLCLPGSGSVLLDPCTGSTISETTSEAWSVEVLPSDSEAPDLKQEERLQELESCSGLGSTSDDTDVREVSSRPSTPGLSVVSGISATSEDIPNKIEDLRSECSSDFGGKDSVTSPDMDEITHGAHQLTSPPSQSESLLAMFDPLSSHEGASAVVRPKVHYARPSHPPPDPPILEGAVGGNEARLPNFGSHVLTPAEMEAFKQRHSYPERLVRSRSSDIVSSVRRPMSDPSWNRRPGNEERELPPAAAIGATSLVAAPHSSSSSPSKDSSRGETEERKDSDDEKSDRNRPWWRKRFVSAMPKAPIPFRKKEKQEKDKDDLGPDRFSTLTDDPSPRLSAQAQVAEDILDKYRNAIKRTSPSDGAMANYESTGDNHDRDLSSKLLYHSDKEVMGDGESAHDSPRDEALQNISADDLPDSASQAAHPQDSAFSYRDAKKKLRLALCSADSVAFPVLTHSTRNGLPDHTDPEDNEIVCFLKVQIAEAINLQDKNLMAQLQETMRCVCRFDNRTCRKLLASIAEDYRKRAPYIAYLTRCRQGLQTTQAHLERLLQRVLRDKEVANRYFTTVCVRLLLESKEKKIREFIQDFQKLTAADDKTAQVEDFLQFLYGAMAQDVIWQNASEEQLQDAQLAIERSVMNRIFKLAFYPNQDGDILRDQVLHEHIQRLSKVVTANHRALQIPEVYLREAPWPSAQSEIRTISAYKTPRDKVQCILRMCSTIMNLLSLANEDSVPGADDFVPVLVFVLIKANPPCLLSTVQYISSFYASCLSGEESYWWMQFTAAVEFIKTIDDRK
UniProt Q9H4A5: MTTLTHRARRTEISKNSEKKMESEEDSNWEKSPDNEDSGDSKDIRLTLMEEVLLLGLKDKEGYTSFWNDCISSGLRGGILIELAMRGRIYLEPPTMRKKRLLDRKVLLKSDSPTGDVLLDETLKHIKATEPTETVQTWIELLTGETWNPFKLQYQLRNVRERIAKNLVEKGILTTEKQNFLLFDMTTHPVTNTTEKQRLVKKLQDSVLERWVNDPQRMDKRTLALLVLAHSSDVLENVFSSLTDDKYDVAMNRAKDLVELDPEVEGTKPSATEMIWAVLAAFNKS
UniProt P51991: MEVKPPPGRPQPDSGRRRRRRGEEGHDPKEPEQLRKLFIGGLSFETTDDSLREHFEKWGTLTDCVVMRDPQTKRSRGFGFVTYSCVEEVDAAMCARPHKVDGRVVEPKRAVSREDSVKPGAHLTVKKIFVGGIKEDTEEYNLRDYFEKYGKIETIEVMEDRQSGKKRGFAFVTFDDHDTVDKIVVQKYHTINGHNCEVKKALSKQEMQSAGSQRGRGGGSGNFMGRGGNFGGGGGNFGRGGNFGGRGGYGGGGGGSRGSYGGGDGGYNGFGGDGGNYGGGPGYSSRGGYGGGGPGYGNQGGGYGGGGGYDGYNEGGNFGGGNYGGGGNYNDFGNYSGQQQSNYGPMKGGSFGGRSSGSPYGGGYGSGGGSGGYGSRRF
UniProt Q04446: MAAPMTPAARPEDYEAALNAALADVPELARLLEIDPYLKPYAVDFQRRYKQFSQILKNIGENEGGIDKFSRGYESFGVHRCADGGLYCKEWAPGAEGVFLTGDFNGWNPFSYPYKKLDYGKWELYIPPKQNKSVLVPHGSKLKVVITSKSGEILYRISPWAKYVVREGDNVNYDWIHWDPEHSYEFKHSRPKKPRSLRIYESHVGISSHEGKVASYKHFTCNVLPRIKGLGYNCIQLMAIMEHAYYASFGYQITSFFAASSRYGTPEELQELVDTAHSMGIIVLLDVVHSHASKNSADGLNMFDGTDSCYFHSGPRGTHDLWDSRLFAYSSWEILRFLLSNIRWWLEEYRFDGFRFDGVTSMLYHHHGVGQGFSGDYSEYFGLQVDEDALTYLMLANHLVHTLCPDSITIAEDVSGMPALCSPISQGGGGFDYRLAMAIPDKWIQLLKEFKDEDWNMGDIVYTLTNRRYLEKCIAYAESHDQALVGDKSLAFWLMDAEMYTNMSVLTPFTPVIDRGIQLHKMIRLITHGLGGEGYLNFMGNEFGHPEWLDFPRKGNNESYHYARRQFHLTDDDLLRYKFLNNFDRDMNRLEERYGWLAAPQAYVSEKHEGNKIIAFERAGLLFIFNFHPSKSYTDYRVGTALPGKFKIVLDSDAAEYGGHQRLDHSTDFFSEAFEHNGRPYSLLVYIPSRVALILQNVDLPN
UniProt P14866: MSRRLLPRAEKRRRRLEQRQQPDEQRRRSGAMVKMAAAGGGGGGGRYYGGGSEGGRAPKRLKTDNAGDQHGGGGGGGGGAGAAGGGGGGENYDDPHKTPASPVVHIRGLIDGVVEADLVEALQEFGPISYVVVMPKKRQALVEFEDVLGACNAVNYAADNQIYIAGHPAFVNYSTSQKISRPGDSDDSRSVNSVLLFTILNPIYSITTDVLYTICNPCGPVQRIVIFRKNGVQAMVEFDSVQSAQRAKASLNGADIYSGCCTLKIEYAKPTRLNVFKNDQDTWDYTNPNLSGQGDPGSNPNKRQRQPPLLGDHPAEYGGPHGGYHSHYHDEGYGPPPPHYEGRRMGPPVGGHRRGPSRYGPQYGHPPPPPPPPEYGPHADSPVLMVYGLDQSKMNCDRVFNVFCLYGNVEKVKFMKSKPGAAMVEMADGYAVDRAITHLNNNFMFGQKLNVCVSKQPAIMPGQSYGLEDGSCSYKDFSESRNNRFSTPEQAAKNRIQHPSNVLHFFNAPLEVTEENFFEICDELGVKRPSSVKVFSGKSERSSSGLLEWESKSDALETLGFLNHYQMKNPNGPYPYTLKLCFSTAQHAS
UniProt Q96MH2: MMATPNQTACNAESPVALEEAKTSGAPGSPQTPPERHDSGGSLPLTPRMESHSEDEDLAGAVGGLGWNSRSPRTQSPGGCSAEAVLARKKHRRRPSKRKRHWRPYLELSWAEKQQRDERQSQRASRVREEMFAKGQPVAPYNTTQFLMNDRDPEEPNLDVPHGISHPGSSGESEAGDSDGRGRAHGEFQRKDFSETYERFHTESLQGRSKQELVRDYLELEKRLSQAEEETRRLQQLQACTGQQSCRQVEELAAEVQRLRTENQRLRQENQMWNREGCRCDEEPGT
UniProt O00178: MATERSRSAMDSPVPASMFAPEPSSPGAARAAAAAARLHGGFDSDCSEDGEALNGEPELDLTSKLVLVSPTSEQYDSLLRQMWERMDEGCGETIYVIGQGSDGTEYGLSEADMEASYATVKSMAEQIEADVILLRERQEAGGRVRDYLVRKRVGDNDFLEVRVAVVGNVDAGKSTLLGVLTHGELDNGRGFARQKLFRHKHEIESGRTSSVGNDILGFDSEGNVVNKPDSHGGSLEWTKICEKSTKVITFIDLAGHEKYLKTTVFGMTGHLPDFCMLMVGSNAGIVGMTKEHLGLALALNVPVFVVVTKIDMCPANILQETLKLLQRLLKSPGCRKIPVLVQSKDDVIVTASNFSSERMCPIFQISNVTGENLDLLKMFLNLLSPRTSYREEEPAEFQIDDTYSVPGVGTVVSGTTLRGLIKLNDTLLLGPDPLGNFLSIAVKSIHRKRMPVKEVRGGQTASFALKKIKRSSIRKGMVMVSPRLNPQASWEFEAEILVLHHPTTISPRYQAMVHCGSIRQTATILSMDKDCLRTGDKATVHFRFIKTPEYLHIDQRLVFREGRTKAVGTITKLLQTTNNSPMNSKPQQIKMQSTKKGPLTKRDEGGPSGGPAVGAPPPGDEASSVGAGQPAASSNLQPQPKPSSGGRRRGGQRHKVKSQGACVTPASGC
UniProt P15170, whole entry: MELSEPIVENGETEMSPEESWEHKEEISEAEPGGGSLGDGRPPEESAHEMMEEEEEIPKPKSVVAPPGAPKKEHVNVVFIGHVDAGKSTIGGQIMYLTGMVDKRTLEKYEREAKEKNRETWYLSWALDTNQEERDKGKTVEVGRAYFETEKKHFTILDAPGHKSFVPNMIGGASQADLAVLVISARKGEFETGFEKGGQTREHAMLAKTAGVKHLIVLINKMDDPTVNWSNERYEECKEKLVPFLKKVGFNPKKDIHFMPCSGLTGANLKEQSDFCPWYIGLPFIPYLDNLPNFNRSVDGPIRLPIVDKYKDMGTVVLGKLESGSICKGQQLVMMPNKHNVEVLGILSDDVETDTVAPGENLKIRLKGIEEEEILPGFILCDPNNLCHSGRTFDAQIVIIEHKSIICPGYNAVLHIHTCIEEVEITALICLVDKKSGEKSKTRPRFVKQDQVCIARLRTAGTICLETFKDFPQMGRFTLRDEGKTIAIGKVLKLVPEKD
UniProt P09488: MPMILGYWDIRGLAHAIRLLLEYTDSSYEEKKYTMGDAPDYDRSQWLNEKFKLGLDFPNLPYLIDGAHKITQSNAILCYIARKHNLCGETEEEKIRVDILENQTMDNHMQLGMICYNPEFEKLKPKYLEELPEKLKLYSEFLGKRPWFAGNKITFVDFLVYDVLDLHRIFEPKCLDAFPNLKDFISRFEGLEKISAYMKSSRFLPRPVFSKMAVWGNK
UniProt Q9BSH5: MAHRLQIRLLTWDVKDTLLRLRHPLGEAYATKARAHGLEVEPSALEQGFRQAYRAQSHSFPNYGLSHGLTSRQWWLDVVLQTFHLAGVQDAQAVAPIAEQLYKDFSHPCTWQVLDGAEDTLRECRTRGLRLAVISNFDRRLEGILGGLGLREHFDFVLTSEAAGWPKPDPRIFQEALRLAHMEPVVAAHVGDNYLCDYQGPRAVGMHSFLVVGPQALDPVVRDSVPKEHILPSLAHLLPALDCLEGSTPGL
UniProt P16403, whole entry: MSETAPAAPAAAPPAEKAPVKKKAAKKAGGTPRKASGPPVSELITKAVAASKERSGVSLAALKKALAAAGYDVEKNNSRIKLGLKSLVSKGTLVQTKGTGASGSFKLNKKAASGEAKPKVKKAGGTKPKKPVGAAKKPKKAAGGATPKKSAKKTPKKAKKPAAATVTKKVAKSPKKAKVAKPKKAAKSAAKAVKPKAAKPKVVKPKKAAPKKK
UniProt Q53FT3: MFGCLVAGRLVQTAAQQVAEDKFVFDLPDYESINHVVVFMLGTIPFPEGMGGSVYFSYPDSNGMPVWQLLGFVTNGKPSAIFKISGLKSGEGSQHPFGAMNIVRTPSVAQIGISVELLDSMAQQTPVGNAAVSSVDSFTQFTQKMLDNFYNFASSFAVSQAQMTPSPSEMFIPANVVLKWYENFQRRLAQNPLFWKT
UniProt P22626: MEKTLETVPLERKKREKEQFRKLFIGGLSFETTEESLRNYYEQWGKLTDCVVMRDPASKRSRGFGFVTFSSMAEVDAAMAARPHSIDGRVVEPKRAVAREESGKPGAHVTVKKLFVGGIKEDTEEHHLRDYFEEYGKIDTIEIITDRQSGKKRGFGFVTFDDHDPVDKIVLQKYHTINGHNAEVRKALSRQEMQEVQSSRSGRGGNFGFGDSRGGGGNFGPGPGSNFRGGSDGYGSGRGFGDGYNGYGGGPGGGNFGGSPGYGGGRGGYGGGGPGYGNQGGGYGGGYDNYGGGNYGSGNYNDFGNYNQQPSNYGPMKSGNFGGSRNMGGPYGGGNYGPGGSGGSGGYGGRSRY
UniProt Q96IJ6: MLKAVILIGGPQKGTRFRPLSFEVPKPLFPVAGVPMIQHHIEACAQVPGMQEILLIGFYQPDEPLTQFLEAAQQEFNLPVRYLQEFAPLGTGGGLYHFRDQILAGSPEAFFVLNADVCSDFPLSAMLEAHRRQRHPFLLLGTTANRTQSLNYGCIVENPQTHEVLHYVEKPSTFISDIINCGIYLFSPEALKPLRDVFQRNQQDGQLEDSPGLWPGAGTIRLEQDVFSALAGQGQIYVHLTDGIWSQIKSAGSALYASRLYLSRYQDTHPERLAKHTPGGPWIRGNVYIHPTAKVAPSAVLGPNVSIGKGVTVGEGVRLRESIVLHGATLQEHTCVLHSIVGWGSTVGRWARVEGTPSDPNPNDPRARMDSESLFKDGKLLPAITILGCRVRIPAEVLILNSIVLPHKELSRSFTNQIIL

What follows are targets tested with Nc1nc2c(ncn2[C@@H]2O[C@H](COP(=O)(O)OP(=O)(O)OP(=O)(O)O)[C@@H](O)[C@H]2O)c(=O)[nH]1 (assay: dose-dependent thermal stabilisation call (2D-TPP, DLPTP, 10% FDR) (binary (1 = stabilised)); higher = stabilised by the compound). Details: system: Jurkat gel-filtered lysate; concentration range 1-500 µM.
Procedure: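 2D thermal proteome profiling in gel-filtered Jurkat E6.1 lysate (2 mg/ml) treated with NaGTP (0, 1, 10, 100, 500 uM) for 10 min at room temperature, then heated 3 min at one of 12 temperatures (42-63.9 C). Soluble protein was quantified by TMT10 MS. The value is the DLPTP call of the paper: dose-dependent thermal stabilisation over all temperatures at 10% FDR (F-test of a dose-response against a flat model); one experiment, one call per tested protein.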

| Target | dose-dependent thermal stabilisation call |
| --- | --- |
| GTF2H3 (UniProt Q13889) | inactive: 0 |
| GRWD1 (UniProt Q9BQ67) | inactive: 0 |
| HDAC4 (UniProt P56524) | inactive: 0 |
| GOLPH3 (UniProt Q9H4A6) | inactive: 0 |
| HIST1H1B (UniProt P16401) | inactive: 0 |
| HDAC1 (UniProt Q13547) | inactive: 0 |
| GORAB (UniProt Q5T7V8) | inactive: 0 |
| GALT (UniProt P07902) | inactive: 0 |
| GAPVD1 (UniProt Q14C86) | inactive: 0 |
| GOLPH3L (UniProt Q9H4A5) | inactive: 0 |
| GSDMD (UniProt P57764) | active: 1 |
| HNRNPA3 (UniProt P51991) | active: 1 |
| GBE1 (UniProt Q04446) | inactive: 0 |
| HNRNPL (UniProt P14866) | active: 1 |
| GNAI2 (UniProt P04899) | active: 1 |
| HEXIM2 (UniProt Q96MH2) | inactive: 0 |
| GTPBP1 (UniProt O00178) | active: 1 |
| HAT1 (UniProt O14929) | active: 1 |
| HEATR3 (UniProt Q7Z4Q2) | inactive: 0 |
| GSPT1 (UniProt P15170) | active: 1 |

| Target | dose-dependent thermal stabilisation call |
| --- | --- |
| GM2A (UniProt P17900) | inactive: 0 |
| GGPS1 (UniProt O95749) | inactive: 0 |
| GFRA1 (UniProt P56159) | inactive: 0 |
| GSTM1 (UniProt P09488) | inactive: 0 |
| HBS1L (UniProt Q9Y450) | active: 1 |
| HMCES (UniProt Q96FZ2) | inactive: 0 |
| HDHD3 (UniProt Q9BSH5) | inactive: 0 |
| HIST1H1C (UniProt P16403) | inactive: 0 |
| HIRA (UniProt P54198) | active: 1 |
| HAUS6 (UniProt Q7Z4H7) | inactive: 0 |
| GSS (UniProt P48637) | active: 1 |
| HAUS7 (UniProt Q99871) | inactive: 0 |
| HIKESHI (UniProt Q53FT3) | inactive: 0 |
| GRK2 (UniProt P25098) | inactive: 0 |
| HNRNPA2B1 (UniProt P22626) | inactive: 0 |
| GMPPA (UniProt Q96IJ6) | active: 1 |
| HCFC2 (UniProt Q9Y5Z7) | inactive: 0 |
| GTF2A1 (UniProt P52655) | inactive: 0 |
| GOSR1 (UniProt O95249) | inactive: 0 |
| HIF1AN (UniProt Q9NWT6) | inactive: 0 |

Quoted from the listing:
GSDMD (UniProt P57764) – dose-dependent thermal stabilisation call: active: 1
GSS (UniProt P48637) – dose-dependent thermal stabilisation call: active: 1
